Measured values taken from patent US5177188A, “Methods and compositions for diagnosing chronic immune thrombocytopenic purpura” (The Scripps Research Institute, priority 1990, dated 1993).
Not every detail of the peptide structures is certain; ends, links or a residue may be inferred. Ends that are not written are not given here.

What was measured:
[1] = tested on: autoantibody binding to washed platelets; test: Inhibition of autoantibody binding to washed platelets by peptide; design: species or system human
Protocol: Washed platelets (3×10^7) were incubated with patient plasma (ITP-1-15 μl, ITP-2-60 μl, ITP-3-30 μl) in a total volume of 200 μl citrate buffer for 2 hrs at room temperature, followed by 4 washes. After resuspension in 300 μl of citrate buffer, platelets were lysed with 33 μl of 10% Triton X-100 in citrate buffer. Next, 100 μl of lysate was added to wells coated with murine anti-GPIIb. Bound antibody was detected with labeled anti-human IgG as described.
To evaluate the ability of washed platelets, affinity-purified GPIIb/IIIa or synthetic peptides to block autoantibody binding, serial dilutions of platelets, GPIIb/IIIa or synthetic peptides (maximum addition: 10^10 platelets, 200 μg GPIIb/IIIa or 10 μg of peptide per 100 μl plasma, respectively) were incubated overnight at 4° C. with the patient's plasma. The preincubated plasma (100 μl 1/10 dilution) was added to replicate wells containing either GPIIb/IIIa from platelet lysate, affinity-purified GPIIb/IIIa or synthetic peptide, and antibody binding to each well was evaluated as describe above. Data were expressed as a percent of the binding of untreated plasma (% inhibition).
To evaluate the contribution of these antipeptide antibodies to the patients' total plasma anti-GPIIb/IIIa activity, the ITP plasmas were preincubated with serial dilutions of the appropriate peptide (8 or 9) and then tested in 4 different assays. […]

[2] = tested on: plasma autoantibodies (anti-GPIIIa) of chronic ITP patients; test: Solid-phase radioimmunoassay: plasma autoantibody binding to well-bound synthetic GPIIIa peptide; design: species or system human
Protocol: Microtiter wells were activated with 100 μl of 0.1% glutaraldehyde in coating buffer (0.1M NaHCO3, pH 8.3) for 1 hr at room temperature (RT). Wells were washed twice with PBS and then incubated for 2 hr at PT with 1 μg of each synthetic peptide in 100 μl of coating buffer. After 6 washes with 0.05% Tween-20 (Sigma Chemical Co., St. Louis, MO) in PBS (wash buffer), each well was incubated with 200 μl of 2% BSA in wash buffer for 1 hr at RT. The wells were washed 6 times, followed by the addition to triplicate wells of 100 μl of plasma diluted 1/10 in wash buffer. After incubation for 1 hr and 6 washes, 100 μl of radiolabeled anti-human igG in wash buffer (100,000 cpm) was added to each well. After a final 1 hr incubation and 6 washes, well-bound radioactivity was determined. Data were expressed as a ratio: Mean cpm bound to GPIIIa peptide divided by mean cpm bound to control peptide (P10).
Nine synthetic peptides corresponding to different sequences within platelet GPIIIa (P1-P9, Table 1) were used as antigenic targets. A synthetic peptide of human HLA Class I heavy chain was used as a control (P10). Plasma from 13 patients with chronic ITP was studied. […] These 2 hydrophilic overlapping peptides are located at the carboxyterminal region of GPIIIa and together comprise the portion of the molecule considered to be the cytoplasmic domain. Plasma for patients ITP-1 and ITP-2 bound to peptide 9 with mean ratios of 32.4 (3 studies) and 5.8 (2 studies), respectively, while patient ITP-3 plasma bound to both peptides 8 and 9 (mean ratios of 13.3 and 3.3, respectively; 3 studies) and patients ITP-4 and ITP-5 bound to peptide 8 (mean ratios of 3.6, 2 studies and 9.4, 2 studies).

## YHDRKEFAKFEEERARAKWDTANN [P8]
[1]; peptide-treated plasma from patient ITP-3, summary in discussion
  inhibition of antibody binding to platelets and GPIIb/IIIa from platelet lysates: less than 30%
[1]; plasma ITP-3 preincubated with peptide, 2 studies
  inhibition of autoantibody binding to washed platelets: 19.7%
[2]; plasma of patient ITP-3, 1/10 dilution, 3 studies
  mean binding ratio (cpm bound to GPIIIa peptide / cpm bound to control peptide P10): 13.3
[2]; plasma of patient ITP-4, 1/10 dilution, 2 studies
  mean binding ratio (cpm bound to GPIIIa peptide / cpm bound to control peptide P10): 3.6
[2]; plasma of patient ITP-5, 1/10 dilution, 2 studies
  mean binding ratio (cpm bound to GPIIIa peptide / cpm bound to control peptide P10): 9.4
